Experimental data: paper PMC3953376
No constants are given. Whether binding was seen depends on the method and setting. Binding seen in cells or lysates may run through a third protein. Some entries that bind do so weakly or less than the wild type.

Amino acid sequences for entries named in this document (tags omitted).
UniProt O94992: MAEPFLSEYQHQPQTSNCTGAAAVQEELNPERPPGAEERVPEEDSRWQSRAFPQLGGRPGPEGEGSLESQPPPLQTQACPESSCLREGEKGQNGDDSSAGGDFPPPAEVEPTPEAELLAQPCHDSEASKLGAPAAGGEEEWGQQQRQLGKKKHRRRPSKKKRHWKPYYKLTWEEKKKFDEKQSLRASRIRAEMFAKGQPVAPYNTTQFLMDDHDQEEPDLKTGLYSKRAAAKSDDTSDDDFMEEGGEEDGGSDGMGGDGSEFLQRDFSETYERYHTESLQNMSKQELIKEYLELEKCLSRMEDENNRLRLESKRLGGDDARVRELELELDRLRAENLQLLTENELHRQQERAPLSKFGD
UniProt P50750: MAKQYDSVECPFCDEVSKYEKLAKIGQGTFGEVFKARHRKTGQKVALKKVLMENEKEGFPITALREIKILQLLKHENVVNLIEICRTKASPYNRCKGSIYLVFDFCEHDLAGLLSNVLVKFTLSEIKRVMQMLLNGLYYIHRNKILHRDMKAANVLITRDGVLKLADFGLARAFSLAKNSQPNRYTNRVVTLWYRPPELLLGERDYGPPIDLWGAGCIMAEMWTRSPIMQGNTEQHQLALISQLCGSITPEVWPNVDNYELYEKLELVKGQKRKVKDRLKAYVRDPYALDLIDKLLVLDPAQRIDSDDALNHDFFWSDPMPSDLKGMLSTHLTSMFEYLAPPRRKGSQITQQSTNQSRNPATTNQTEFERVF
UniProt P35998: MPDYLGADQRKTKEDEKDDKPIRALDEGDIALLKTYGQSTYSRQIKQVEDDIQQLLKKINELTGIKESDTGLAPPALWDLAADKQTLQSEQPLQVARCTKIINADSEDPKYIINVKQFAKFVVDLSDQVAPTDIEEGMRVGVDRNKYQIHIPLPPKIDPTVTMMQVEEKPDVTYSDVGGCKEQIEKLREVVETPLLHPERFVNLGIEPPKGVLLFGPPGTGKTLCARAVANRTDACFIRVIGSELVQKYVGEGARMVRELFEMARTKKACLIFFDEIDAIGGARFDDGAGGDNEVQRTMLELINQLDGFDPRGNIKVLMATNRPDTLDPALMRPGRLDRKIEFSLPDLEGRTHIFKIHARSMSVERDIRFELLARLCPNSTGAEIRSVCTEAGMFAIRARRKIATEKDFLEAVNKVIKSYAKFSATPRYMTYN
UniProt P17980: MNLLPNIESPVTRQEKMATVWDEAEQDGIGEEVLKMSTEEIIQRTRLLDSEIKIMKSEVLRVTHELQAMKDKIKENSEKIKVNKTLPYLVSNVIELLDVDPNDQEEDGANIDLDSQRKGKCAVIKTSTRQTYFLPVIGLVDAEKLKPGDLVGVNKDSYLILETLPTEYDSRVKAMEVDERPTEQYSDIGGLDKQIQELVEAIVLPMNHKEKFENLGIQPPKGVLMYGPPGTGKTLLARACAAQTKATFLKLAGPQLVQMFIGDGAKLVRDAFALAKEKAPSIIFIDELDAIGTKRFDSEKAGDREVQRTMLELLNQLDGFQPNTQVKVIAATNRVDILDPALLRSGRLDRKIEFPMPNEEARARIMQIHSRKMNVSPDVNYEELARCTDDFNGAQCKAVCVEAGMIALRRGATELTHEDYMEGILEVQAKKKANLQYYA
UniProt P62195: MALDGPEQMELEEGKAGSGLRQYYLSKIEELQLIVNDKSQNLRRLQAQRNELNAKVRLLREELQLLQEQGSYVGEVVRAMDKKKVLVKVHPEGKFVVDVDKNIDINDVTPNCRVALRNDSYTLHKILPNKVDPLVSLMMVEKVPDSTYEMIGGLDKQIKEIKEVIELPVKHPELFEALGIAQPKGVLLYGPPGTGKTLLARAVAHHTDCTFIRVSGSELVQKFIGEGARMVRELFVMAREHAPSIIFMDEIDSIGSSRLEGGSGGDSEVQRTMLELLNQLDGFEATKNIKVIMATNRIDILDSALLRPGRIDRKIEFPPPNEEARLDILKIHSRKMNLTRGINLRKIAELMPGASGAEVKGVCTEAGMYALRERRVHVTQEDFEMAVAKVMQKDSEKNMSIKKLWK

What was measured:
[1] = molecular target: Flag-Hexim1 (UniProt O94992); experiment: co-IP; HeLa cells co-transfected with Myc-tagged ATPase and Flag-Hexim or HA-CDK9; RIPA lysates; IP with Flag beads or HA beads, immunoblot for Myc; mouse IgG as negative control
[2] = molecular target: HA-CDK9 (UniProt P50750); experiment: as above
[3] = molecular target: endogenous S7 (human (endogenous in HeLa)) (UniProt P35998); experiment: co-IP; endogenous proteins, HeLa cells lysed in NP-40 lysis buffer; IP with antibody against Sug1, S7 or S6a, immunoblot for Hexim, CDK9 or Ser5p RNA pol II; mouse IgG as negative control
[4] = molecular target: endogenous S6a (human (endogenous in HeLa)) (UniProt P17980); experiment: as above
[5] = molecular target: endogenous Sug1 (human (endogenous in HeLa)) (UniProt P62195); experiment: as above

| Substance | binding [1] | binding [2] | binding [3] | binding [4] | binding [5] |
| --- | --- | --- | --- | --- | --- |
| Myc-S6a (from UniProt P17980 1-439) | binds | binds | – | – | – |
| Myc-S7 (from UniProt P35998 1-433) | binds | binds | – | – | – |
| Myc-Sug1 (from UniProt P62195 1-406) | binds | binds | – | – | – |
| endogenous CDK9 (from UniProt P50750 1-372) | – | – | binds | – | – |
| endogenous Hexim (from UniProt O94992 1-359) | – | – | binds | binds | binds |
